{"source": "patent US20180265423A1", "about": "“Pesticide Dispersion in Concentrated Aqueous Fertilizer Solution” (priority 2014, published 2018)", "test": "Study of additional surfactants in 10-34-0, 27-4-0 and diluted 10-34-0 fertilizers (Example 8)", "type": "physicochemical", "conditions": "27-4-0 76.6, surfactant 23.4 wt", "note": "At least one structure is not confirmed: it was looked up by name or label, or the drawing left a doubt.", "data": [{"smiles": "CCCCC(CC)COS(=O)(=O)[O-].[Na+]", "note": "(stereo not shown) [Witcolate D510, 2-ethylhexyl sulfate]", "values": [{"measurement": "Surfactant Suitability", "result": "27-4-0"}]}]}
